Results on one substance are retold here after PMC11331741.

The chains behind the UniProt entries cited, without tags or fusion partners. Where a name states a change or a piece, a line headed by the entry shows the natural chain unless it says otherwise. Residues count along the entry.
UniProt P11802: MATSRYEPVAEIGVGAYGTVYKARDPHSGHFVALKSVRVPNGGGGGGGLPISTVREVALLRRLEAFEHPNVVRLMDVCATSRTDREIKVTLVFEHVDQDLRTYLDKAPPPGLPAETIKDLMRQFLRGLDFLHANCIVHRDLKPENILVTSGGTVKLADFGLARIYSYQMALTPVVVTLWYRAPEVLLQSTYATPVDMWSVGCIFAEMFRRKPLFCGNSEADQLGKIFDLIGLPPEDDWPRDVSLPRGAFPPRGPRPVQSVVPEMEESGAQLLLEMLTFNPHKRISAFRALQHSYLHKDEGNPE
GFP-CDK4-N-term: residues 1-96 of P11802
GFP-CDK4-C-term: residues 96-303 of P11802
UniProt Q9Y297: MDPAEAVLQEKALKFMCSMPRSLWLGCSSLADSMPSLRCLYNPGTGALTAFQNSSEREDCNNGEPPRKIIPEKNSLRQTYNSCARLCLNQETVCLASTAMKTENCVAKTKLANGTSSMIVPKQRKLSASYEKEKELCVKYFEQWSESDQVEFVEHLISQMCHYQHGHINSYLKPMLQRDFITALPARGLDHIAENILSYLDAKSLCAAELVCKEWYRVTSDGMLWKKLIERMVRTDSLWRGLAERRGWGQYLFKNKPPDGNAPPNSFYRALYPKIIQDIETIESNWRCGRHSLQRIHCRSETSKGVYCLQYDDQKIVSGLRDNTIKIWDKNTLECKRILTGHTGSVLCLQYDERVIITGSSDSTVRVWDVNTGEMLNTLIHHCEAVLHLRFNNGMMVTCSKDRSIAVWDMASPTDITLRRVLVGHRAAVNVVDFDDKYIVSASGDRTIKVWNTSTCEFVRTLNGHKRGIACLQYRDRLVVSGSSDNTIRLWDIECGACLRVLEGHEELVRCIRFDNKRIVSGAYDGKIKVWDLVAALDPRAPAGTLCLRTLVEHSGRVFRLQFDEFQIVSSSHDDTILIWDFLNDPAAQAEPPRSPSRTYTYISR

Common to all, as to assay: co-IP; HA- and GFP-tagged plasmids transiently co-transfected 1:1 into LN229 cells, lysed after 36 h; lysate incubated with anti-HA or anti-GFP mAb magnetic beads for 4-5 h at 4 °C; Western blot
A general note: In western blotting, separated proteins are transferred to a membrane and probed.

Assay [1] concerns the target GFP-CDK4 (UniProt P11802).
In assay [2] the target is GFP-CDK4-N-term (UniProt P11802).
Assay [3] concerns the target GFP-CDK4-C-term (UniProt P11802).

No constants are given. Whether binding was seen depends on the method and setting. Binding seen in cells or lysates may run through a third protein. Some entries that bind do so weakly or less than the wild type.

For the substance HA-β-TrCP1 (from UniProt Q9Y297 1-605), the figures for the binding result in assay [1], in assay [2] and in assay [3] were “binds”, “binds” and “no binding”, respectively.
